The numbers were not newly measured in paper PMC5700124 (Scientific Reports, 2017), which cites them from elsewhere.

Data set [1] has as its system α2 adrenoceptor. Particulars: cited from earlier work.
Data set [2] deals with α2 adrenoceptor. Also noted: method as in Rout et al.[32]. Particulars: cortex, pH 7.0, 25.0 °C, blocking of NS noradrenaline 100 μM, ref Rout et al.[32], cited from earlier work.

Each structure is given as a SMILES string. Where two headings read alike, the source gives them in different places.

In the case of `COC(=O)[C@H]1[C@H]2C[C@H]3c4[nH]c5ccccc5c4CCN3C[C@H]2CC[C@@H]1O` [[^3H] -rauwolscine, [^3H]rauwolscine], the Bmax in the data set with α2 adrenoceptor [1] (anterior forebrain, autoradiography, pH 7.7, 22 °C, mg^2+ 0, blocking of NS phentolamine 10 μM, ref Boyajian et al.[41]) was 109 fmol/mg protein. For the same molecule, the receptor density in the data set on α2 adrenoceptor [1] (in vitro receptor binding, rat caudate-putamen) is 197 fmol/mg protein.
For the molecule `COC(=O)[C@@H]1[C@H]2C[C@H]3c4[nH]c5ccccc5c4CCN3C[C@@H]2CC[C@@H]1O` [[^3H]yohimbine], the Bmax with α2 adrenoceptor [2] (mg^2+ 0 mM) is given as 260 fmol/mg protein; with α2 adrenoceptor [2] (mg^2+ 10 mM) it was 157 fmol/mg protein.
